Test results published in patent US5006448A, “Photographic material and process” (Eastman Kodak Company, priority 1989, dated 1991).

Assays:
[1] = Example 3 photographic element with IC-2 in layer 1 and IC-3 in layer 2; conditions: Table III; for Gamma "causer" / Gamma "receiver": interimage effect; for Disc sys AMT acutance: spatial frequencies 2. to 30 cycles per mm
Method: (§1) For evaluation of the DIR coupler effect on "causer" layer gamma and sharpness, the samples were exposed through a graduated-density test object and a Kodak Wratten 99 (green) filter. This exposed photographic layer 1.
(§2) For interimage evaluation, the samples were exposed through a graduated-density test object and a Kodak Wratten 12 (minus blue) filter. This exposed both layers 1 and 2.
(§3) Sharpness was evaluated by calculating CMT acutance values for l6mm film or by calculating AMT acutance values for a Disc type film or for a 35 mm film.
(§4) where M=11.8 for a l6mm film, and M'=3.8 for a 35 mm film or 11.5 for a DISC type film.
Three additional photographic elements (Coating Nos. 12-14 of Table III) were prepared in a manner similar to that described in Example 1 except that different dye-forming couplers were used. In this Example, photographic layer 1 incorporated IC-2 at 1300 mg/m^2 and photographic layer 2 incorporated IC-3 at 650 mg/m^2. These elements were exposed and processed as described in Example 1.

[2] = Example 1 two-layer color photographic element: causer gamma, acutance and interimage effect of DIR compound; conditions: Table I; for CMT16mm acutance: acutance of layer 1, spatial frequencies 15 to 80 cycle per mm; for Gamma "causer" / Gamma "receiver": interimage effect, Wratten 12 (minus blue) exposure; for Gamma "causer": layer 1, Wratten 99 (green) exposure, DIR coverage as coated (mg/m^2)
Method: (§5) Eight color photographic elements (coatings numbered 1-8 in Table I) were prepared having the following schematic layer structure and using silver bromoiodide emulsions containing 6.4 mole % iodide (numerical values denote coating coverages in mg/m^2 and the silver halide values are for equivalent weights of silver):
The dye-forming couplers IC-1 and IC-2 were each dispersed in half their weight of di-n-butyl phthalate, the dye forming coupler IC-3 was dispersed in half its weight of tri-cresyl phosphate and the DIR compounds were each dispersed in twice their weight of diethyl lauramide.
as §1, §2, §3
Calculations employed the following formulas in which the cascaded area under the system modulation transfer curve is shown in equation (21.104) on page 629 of The Theory of the Photographic Process, 4th edition, 1977, edited by T. H. James:
as §4
The photographic materials were then processed at 38° C. as follows:
The color developer composition was:
The oxidized color developing agent generated by development of exposed silver reacts with adjacent dye image-forming compounds and DIR compound, if present, to form dyes and to release inhibitor (or inhibitor precursor) in photographic layer 1. The development inhibiting effects of inhibitor released from the DIR compound were assessed by monitoring the gamma of photographic layer 1. The sharpness effects of the inhibitor released from the DIR compound were assessed by monitoring the acutance of photographic layer 1. Higher acutance values indicate greater sharpness in the processed film.
The interimage effects of the inhibitor released from the DIR compound were assessed by monitoring the ratio of the gammas of photographic layer 1 (causer of interimage effect) and photographic layer 2 (receiver of interimage effect). The larger the gamma ratio, the larger the interimage effect (the degree of color correction) in the film.

[3] = Example 5 photographic element: causer gamma Gc; conditions: Table V discussion
Method: as §5, with “Four additional” for “Eight color”, “(a control coating 15 and test coatings (16-18)” for “(coatings numbered 1-8 in Table I)”
Film strips were exposed through a graduated-density test object and a Kodak Wratten 12 (minus blue) filter and then processed as in Example 1.

| Structure (SMILES) | Gamma "causer" [1] | Gamma "causer" / Gamma "receiver" [1] | Disc sys AMT acutance [1] | CMT16mm acutance [2] | Gamma "causer" / Gamma "receiver" [2] | Gamma "causer" [2] | suppression of "causer" gamma (in words) [3] |
| --- | --- | --- | --- | --- | --- | --- | --- |
| CCCCCCCCOc1ccc(-c2nnn(C(C(=O)Nc3cc(NC(=O)CCCCOc4ccc(C(C)(C)CC)cc4C(C)(C)CC)ccc3Cl)C(=O)C(C)(C)C)n2)cc1 (stereo not shown) [DIR Compound G] | 1.54 | 1.02 | 85.2 |  |  |  |  |
| CCCCCCCCCCCCCCOc1ccccc1NC(=O)c1cc(Oc2ccc([N+](=O)[O-])cc2CN(C(=O)Sc2nnnn2-c2ccccc2SC)C(C)C)c2ccccc2c1O [Compound D-2] |  |  |  | 100.5 | 1.04 | 0.55 |  |
| CCCCSCCCOc1ccc(-c2nnn(C(C(=O)Nc3cc(NC(=O)CCCCOc4ccc(C(C)(C)CC)cc4C(C)(C)CC)ccc3Cl)C(=O)C(C)(C)C)n2)cc1 [Compound D-104] | 1.05 | 0.94 | 87.0 |  |  |  |  |
| CCCCCCCCCCCCOc1ccc(C(=O)C(C(=O)Nc2cc(C(F)(F)F)ccc2Cl)n2nnc(CCCCCCCC)n2)cc1 (stereo not shown) [DIR Compound H] |  |  |  |  |  |  | ineffective |
| CCCCCCCCCCCCCCOc1ccccc1NC(=O)c1cc(Sc2nnnn2-c2ccccc2SC)c2ccccc2c1O [Compound D-1] |  |  |  | 97.4 | 0.55 | 0.44 |  |
| CCCCCCCCCCCCCCOc1ccccc1NC(=O)c1cc(Sc2nnnn2-c2ccc(OCC)cc2)c2ccccc2c1O [DIR Compound B] |  |  |  | 96.2 | 0.52 | 0.61 |  |
| CCCCCCCCCCCCCCOc1ccccc1NC(=O)c1cc(Oc2ccc([N+](=O)[O-])cc2CN(C(=O)Sc2nnnn2-c2ccc(OCC)cc2)C(C)C)c2ccccc2c1O [DIR Compound E] |  |  |  | 98.4 | 0.83 | 0.59 |  |
| CCCCCCCCCCCCCCOc1ccccc1NC(=O)c1cc(Sc2nnnn2-c2ccccc2)c2ccccc2c1O [DIR Compound A] |  |  |  | 96.2 | 0.77 | 0.57 |  |
| CCCCCCCCCCCCCCOc1ccccc1NC(=O)c1cc(Sc2nnnn2Cc2ccc(OC)cc2)c2ccccc2c1O [DIR Compound C] |  |  |  | 95.2 | 0.41 | 0.47 |  |
| CCCCCCCCCCCCCCOc1ccccc1NC(=O)c1cc(Oc2ccc([N+](=O)[O-])cc2CN(C(=O)Sc2nnnn2-c2ccccc2)C(C)C)c2ccccc2c1O [DIR Compound D] |  |  |  | 99.9 | 1.41 | 0.57 |  |
